From PubChem BioAssay (Tox21)
Values joined by “and” are separate entries in the source; they are usually repeats but may differ in a detail not shown here. Identical values can stand only once. Inconclusive means that the source gave no clear call. Such entries were picked first, then a sample of the others. Potencies of inconclusive entries are doubtful fits and often do not repeat. Active and inactive are the calls of the source. Calls come from the whole dose curve; as a rule, active = well fitted inhibition curve with a large enough effect in the repeat runs; inconclusive = weak or mixed curves; inactive = no such curve, though single readings can be large or run the other way.

By UniProt entry, the sequences of proteins in these tests, tags left out.
UniProt P11712, whole entry, looked up: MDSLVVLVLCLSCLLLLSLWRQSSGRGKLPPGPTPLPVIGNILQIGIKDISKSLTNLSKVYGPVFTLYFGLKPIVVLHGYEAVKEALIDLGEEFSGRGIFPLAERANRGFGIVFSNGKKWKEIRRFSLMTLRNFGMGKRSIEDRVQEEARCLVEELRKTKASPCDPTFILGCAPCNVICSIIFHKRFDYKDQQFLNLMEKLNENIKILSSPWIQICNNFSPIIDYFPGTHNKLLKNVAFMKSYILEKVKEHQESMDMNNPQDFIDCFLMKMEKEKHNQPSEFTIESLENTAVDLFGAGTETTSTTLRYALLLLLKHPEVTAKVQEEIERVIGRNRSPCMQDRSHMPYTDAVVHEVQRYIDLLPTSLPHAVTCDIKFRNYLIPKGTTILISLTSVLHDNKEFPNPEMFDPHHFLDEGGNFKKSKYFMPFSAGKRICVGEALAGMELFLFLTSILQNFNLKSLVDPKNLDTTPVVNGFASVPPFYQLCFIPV

target: Cytochrome P450 2C9 (Homo sapiens) (UniProt P11712); assay: Cytochrome P450 Family 2 Subfamily C Member 9 (CYP2C9) small molecule antagonists: luciferase reporter qHTS assay (AID 1671198); conditions: P450-Glo CYP2C9 enzyme assay, luciferin luminescence; series mostly up to 115 µM; activity change, negative = inhibition: at the top concentration; note: nearly all actives have a fitted effect of over 50% in size
Outline: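 CYP2C9 activity was measured with a P450-Glo proluciferin substrate. Enzyme–substrate mix was held with compound for 10 min at room temperature, then NADPH regeneration solution was added for 1 h at 37C. Luciferin product was read as luminescence.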
% is set by controls: 0 for no effect and ±100 for the full control effect; potency is the fitted concentration of half-maximal effect.

SMILES	Potency	activity change, negative = inhibition
C=CCN(CC=C)C(=O)C(Cl)Cl	inconclusive: 63.3 µM [inhibitor, partial curve, poor fit]	
N#CCCl	inconclusive: 41.6 µM [inhibitor, partial curve]	
Cc1c([N+](=O)[O-])c(C)c([N+](=O)[O-])c(C(C)(C)C)c1[N+](=O)[O-]		inactive: -1.11%
COP(=S)(OC)Oc1ccc(Sc2ccc(OP(=S)(OC)OC)cc2)cc1	active: 5.64 µM and active: 11 µM	
COP(=S)(OC)Oc1cc(Cl)c(Br)cc1Cl	active: 5.64 µM	
CCOCn1c(-c2ccc(Cl)cc2)c(C#N)c(Br)c1C(F)(F)F	active: 8.94 µM	
COC(=O)N(OC)c1ccccc1COc1ccn(-c2ccc(Cl)cc2)n1	active: 7.1 µM	
CC(=O)OC(c1ccccc1)C(Cl)(Cl)Cl (stereo not drawn)	inconclusive: 63.3 µM [inhibitor, partial curve, poor fit]	
Cc1ccc(N)cc1	inconclusive: 54.5 µM [inhibitor, partial curve, poor fit] and inconclusive: 25.2 µM [inhibitor, full curve]	
O=C(N[C@H](c1ccccc1)[C@@H]1CN2CCC1CC2)c1c(Cl)ccc(C(F)(F)F)c1Cl	inconclusive: 64.2 µM [inhibitor, partial curve, poor fit]	
CNC(=O)Oc1cc(C)c(SC)c(C)c1	inconclusive: 71 µM [inhibitor]	
COCCl	inconclusive: 58.6 µM [inhibitor, partial curve]	
CCCCN(CCCCO)N=O	inconclusive: 35.6 µM [inhibitor, partial curve]	
